Measured values from paper PMC11016120.
These are yes or no findings as the source states them, for the method shown. Binding seen in cells or lysates may run through a third protein. Some results given as binding are weak or reduced against the parent protein; the word gives no strength.

How the values were obtained:
[1] = biological target: T1, lipopolysaccharide-binding protein (LBP) (UniProt P18428); experiment: co-IP; cells under intense oxidative stress (H2O2 treatment); total protein extracted by 1% Triton and sonication; Protein A/G magnetic beads; western blot
T1 sequence: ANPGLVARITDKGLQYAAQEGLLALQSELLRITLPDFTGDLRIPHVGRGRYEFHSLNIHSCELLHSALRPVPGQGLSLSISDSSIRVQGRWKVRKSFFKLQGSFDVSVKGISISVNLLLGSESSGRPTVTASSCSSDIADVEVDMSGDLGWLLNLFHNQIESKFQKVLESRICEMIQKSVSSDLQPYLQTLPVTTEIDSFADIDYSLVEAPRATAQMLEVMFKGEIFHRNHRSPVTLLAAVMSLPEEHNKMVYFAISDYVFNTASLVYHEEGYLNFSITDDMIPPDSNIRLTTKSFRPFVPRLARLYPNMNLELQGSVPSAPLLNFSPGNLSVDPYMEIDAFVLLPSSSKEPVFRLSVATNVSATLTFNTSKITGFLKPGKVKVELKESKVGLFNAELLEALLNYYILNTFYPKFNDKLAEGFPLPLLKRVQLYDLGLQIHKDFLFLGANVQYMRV

[2] = biological target: T1, lipopolysaccharide-binding protein (LBP); experiment: co-IP; total protein extracted by 1% Triton and sonication; Protein A/G magnetic beads; western blot

binding [2]: binds
B1: peroxiredoxin 4 (PRDX4) (protein, UniProt Q13162 38-271)
chain: WETEERPRTREEECHFYAGGQVYPGEASRVSVADHSLHLSKAKISKPAPYWEGTAVIDGEFKELKLTDYRGKYLVFFFYPLDFTFVCPTEIIAFGDRLEEFRSINTEVVACSVDSQFTHLAWINTPRRQGGLGPIRIPLLSDLTHQISKDYGVYLEDSGHTLRGLFIIDDKGILRQITLNDLPVGRSVDETLRLVQAFQYTDKHGEVCPAGWKPGSETIIPDPAGKLKYFDKLN
binding [1]: no binding (condition: with H2O2 treatment)
